# According to the supplement of paper PMC10338343:
# ± gives the standard deviation. The entries are a selection whose mix differs from that of the whole data set. The uncertainty is large for many entries. This is one part of the list.
# Tests used:
# [1] = system: MILI (PIWIL2) piRISC loaded with L1MC piRNA (26 nt); assay: pre-steady-state target cleavage rate (min^-1); higher = faster piRNA-guided slicing of the target; settings: guide: L1MC piRNA 5'p-UAACUAAAUACUAUGCAAGCUGUAGG;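 further: 1 nM active piRISC with 0.1 nM target library at 33 °C single turnover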
# How it was run: (§1)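 For Cleave-'n-Seq, a transcribed, DNA-blocked target RNA library […] met 1 nM active affinity-purified piRISC with one synthetic guide at 33 °C for 0–8 or 0–960 min in HEPES–potassium acetate buffer, with or without 500 nM GTSF1 partner protein. Uncleaved targets were sequenced and normalised to depth and weakly complementary targets, with three trials pooled and k3 capped at 0.0001 min^-1. A burst-and-steady-state fit supplied the pre-steady-state cleavage rate.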
# [2] = system: EfPiwi piRISC loaded with L1MC piRNA (26 nt); assay: pre-steady-state target cleavage rate (min^-1); guide: L1MC piRNA 5'p-UAACUAAAUACUAUGCAAGCUGUAGG; MIWI and MILI are mouse PIWI proteins and EfPiwi is from a freshwater sponge; tags in brackets are library labels; higher = faster piRNA-guided slicing of the target
# How it was run: as §1
# [3] = auxiliary factor: none (no GTSF1)
# [4] = auxiliary factor: 500 nM Ephydatia muelleri Gtsf1
# [5] = auxiliary factor: 500 nM mouse GTSF1
# [6] = auxiliary factor: none (no Gtsf1)
Sequence,"pre-steady-state target cleavage rate [1, 3]","pre-steady-state target cleavage rate [2, 4]","pre-steady-state target cleavage rate [1, 5]","pre-steady-state target cleavage rate [2, 6]"
UCCUGGAUGAGCUUGGAUAGUAUUAAGUUA,0.00265 ± 0.0029,0.000818 ± 0.0075,,
UCCUGGAUGUCGAAGCAUUGUAUUUUGUUA,0.000395 ± 0.013,0.000246 ± 0.014,,
UCCUGGAUGUCGUUGCAUAGUAUUAAGUAA,0.00163 ± 0.0044,0.00078 ± 0.009,,
UCCUGGUACAGCUUGGAUAGUAUAUAGUUA,,,0.316 ± 0.065,0.00132 ± 0.0085
UCCUGGAACAGCAAGCAUAGUAUUUAGUAA,0.00279 ± 0.0033,0.00167 ± 0.0035,,
UCCUGGAUCAGCAUGCAUAGAAUUUAGUUA,0.00247 ± 0.0025,0.000952 ± 0.0036,,
UCCUGGAUGUCCUUGCAUAGUAUUUCGUUA,0.00253 ± 0.0033,0.000876 ± 0.0033,,
UCCUGGAUCAGCUUGCAUAGAAUUUAGAUA,0.000921 ± 0.0053,0.0036 ± 0.0019,,
UCCUCCAACAGCUUGCAUAGAAUUUAGUUA,0.00235 ± 0.0025,,,0.00116 ± 0.0055
UCCUGGAUGUCGAUGCAUAGUAAUAAGUUA,0.00102 ± 0.0074,0.00124 ± 0.0061,,
UCCUGGUACAGCUUGCAUACUAUUUAGUAA,0.00234 ± 0.0042,,,0.000499 ± 0.021
UCCUGGAUGUCGAACGUAAGUAUAUUGUUA,0.000207 ± 0.021,0.000339 ± 0.017,,
UCCUCCUACAGCAUGCAUAGUAUUUAGUUA,,0.0743 ± 0.019,0.316 ± 0.021,
UCCUGGAUCAGCUUGCAUACUAUUAAGUUA,0.00106 ± 0.0062,0.00253 ± 0.0023,,
UCCUGGAACAGCUUGCAUAGAAUUUAGUAA,0.000863 ± 0.0083,0.00292 ± 0.002,,
UCCUGCUACAGGUAGCAUAGUAUUUAGUUA,,0.0207 ± 0.0042,0.367 ± 0.031,
UCCUCCUACAGCUUGCAUGGUAUUUAGUUA,,0.0681 ± 0.02,0.413 ± 0.019,
UCCUGGUAGAGCUUGCAUAGUAUUUAGAUA,0.00292 ± 0.003,0.00178 ± 0.0044,,
UCCUGCUACAGCAUGCAUAGUAUUUACUUA,0.00226 ± 0.0051,0.0037 ± 0.0024,,
UCCUGCAUCAGCUUGCAUAGUAUUUAGUUA,,0.0591 ± 0.011,0.322 ± 0.021,
UCCUGCUACAGCAACCAUAGUAUUUUCAAA,0.00051 ± 0.017,0.000574 ± 0.0094,,
UCCUGGUACAGCUUGCAUAGUAUUAUAGUUA,,0.00555 ± 0.0023,0.299 ± 0.034,
UCCUGGAACAGCUUGCUUAGAAUUUAGUUA,0.0014 ± 0.0035,0.00161 ± 0.0026,,
UCCUGCUACAGCUUGCAAAGUUUUUAGUUA,0.0024 ± 0.0027,0.00207 ± 0.002,,
UCCUGGAACAGCUUGCAUUGAAUUUAGUUA,0.00224 ± 0.0032,0.000418 ± 0.0081,,

Sequence,"pre-steady-state target cleavage rate [1, 3]","pre-steady-state target cleavage rate [2, 4]","pre-steady-state target cleavage rate [1, 5]","pre-steady-state target cleavage rate [2, 6]"
UCCUGGAACAGCUUGCAUAGUAUUUUCUAA,0.00095 ± 0.0061,0.00231 ± 0.0025,,
UCCUCCUACAGCUUGCAUAGUAUUAUCAAA,0.00149 ± 0.0048,0.00273 ± 0.0027,,
UCCUGGAACAGCAUGCAUAGUAUUUAGAAA,0.00289 ± 0.0032,0.00167 ± 0.0021,,
UCCUGGAUCACCUUGCAUAGAAUUUAGUUA,0.00229 ± 0.0031,0.00179 ± 0.005,,
UCCUGCUACAGCAUGCAUAGAAUUUAGUUA,0.00215 ± 0.0051,,,0.000313 ± 0.024
UCCUGGUUCAGCUUGCAUAGUAUUUUCAAA,0.00223 ± 0.0034,0.00275 ± 0.0031,,
UCCUGGUACAGCAUGCAUAGUAUUUAGAAA,0.00258 ± 0.0032,,,0.000325 ± 0.026
UCCUGGAUCAGGUUGCAUAGUAUUUAGAAA,0.00249 ± 0.0025,0.00341 ± 0.0019,,
UCCUGGAUGUCCUUGCAUAGUAUUUAAUUA,0.00239 ± 0.0031,,,0.000488 ± 0.015
UCCUGGAUCAGCUUGCAUUGUAUUUAGAUA,0.00239 ± 0.0033,0.00276 ± 0.0021,,
UCCUGCUACAGCUUGGCAUAGUAUUUAGUUA,,0.00928 ± 0.0031,0.307 ± 0.051,
UCCUGGAACAGCUUCCAUAGUAUUUAGUUA,0.00119 ± 0.0043,,,0.000551 ± 0.011
UCCUGGAUGUGCUUGCAUAGUAAUUAGUAA,0.0028 ± 0.0034,0.0012 ± 0.0051,,
UCCUGGAACUGCUUGCAUAGUAUUUACAAA,0.00101 ± 0.007,0.0018 ± 0.0024,,
UCCUGCUAGUCCUUGCAUAGUAUUUAGUAA,0.00166 ± 0.0035,0.00266 ± 0.0028,,
UCCUGGAACAGCUUGCAUAGUAUUUUCAUA,0.000762 ± 0.0087,,,0.00022 ± 0.04
UCCUCCUACAGCUCGCAUAGUAUUUAGUUA,,0.0845 ± 0.019,0.288 ± 0.019,
UCCUCGUACAGCUUGCAUAGUAUUUACUUA,0.00197 ± 0.0037,0.00206 ± 0.0043,,
UCCUGGAACAGCUUGCAUACUAUAUAGUUA,0.00205 ± 0.0037,0.00193 ± 0.0026,,
UCCUGGAUCAGCUUGCAAUCUAUUUAGUUA,0.00127 ± 0.007,0.000885 ± 0.0057,,
UCCUGGAACAGCUAGCAUACUAUUUAGUUA,0.00249 ± 0.0026,0.0045 ± 0.0019,,
UCCUGGUACAGCUUGCAUAGUAUAAUCAAA,0.00075 ± 0.0085,0.00151 ± 0.0037,,
UCCUGGAUCAGCUUGCAUAGUUAAUAGUAA,0.002 ± 0.0039,0.000328 ± 0.016,,
UCCUGGAUGUCGAACGUAAGUAUUUACGUUA,0.000289 ± 0.021,0.000106 ± 0.025,,
UCCUGGAACAGCUUGCAUAGUUUAUAGUUA,0.00212 ± 0.0036,0.00164 ± 0.0034,,

# Reformatted: entries from further up.
Sequence	pre-steady-state target cleavage rate [1, 3]	pre-steady-state target cleavage rate [2, 4]	pre-steady-state target cleavage rate [1, 5]	pre-steady-state target cleavage rate [2, 6]
UCCUGGUUCAGCUUGCAUAGUAUUUUCAAA	0.00223 ± 0.0034	0.00275 ± 0.0031		
UCCUGGUACAGCAUGCAUAGUAUUUAGAAA	0.00258 ± 0.0032			0.000325 ± 0.026
UCCUGGAUCAGGUUGCAUAGUAUUUAGAAA	0.00249 ± 0.0025	0.00341 ± 0.0019		
UCCUGGAUGUCCUUGCAUAGUAUUUAAUUA	0.00239 ± 0.0031			0.000488 ± 0.015
UCCUGGAUCAGCUUGCAUUGUAUUUAGAUA	0.00239 ± 0.0033	0.00276 ± 0.0021		
UCCUGCUACAGCUUGGCAUAGUAUUUAGUUA		0.00928 ± 0.0031	0.307 ± 0.051	
UCCUGGAACAGCUUCCAUAGUAUUUAGUUA	0.00119 ± 0.0043			0.000551 ± 0.011
UCCUGGAUGUGCUUGCAUAGUAAUUAGUAA	0.0028 ± 0.0034	0.0012 ± 0.0051		
UCCUGGAACUGCUUGCAUAGUAUUUACAAA	0.00101 ± 0.007	0.0018 ± 0.0024		
UCCUGCUAGUCCUUGCAUAGUAUUUAGUAA	0.00166 ± 0.0035	0.00266 ± 0.0028		
UCCUGGAACAGCUUGCAUAGUAUUUUCAUA	0.000762 ± 0.0087			0.00022 ± 0.04
UCCUCCUACAGCUCGCAUAGUAUUUAGUUA		0.0845 ± 0.019	0.288 ± 0.019	
UCCUCGUACAGCUUGCAUAGUAUUUACUUA	0.00197 ± 0.0037	0.00206 ± 0.0043		
